Assay results: patent publication EP3231875A1
No constants are given. Whether binding was seen depends on the method and setting. In cells and extracts the contact can be indirect. Some results given as binding are weak or reduced against the parent protein; the word gives no strength.

By UniProt entry, the sequences of proteins in these tests, tags left out.
UniProt P51587: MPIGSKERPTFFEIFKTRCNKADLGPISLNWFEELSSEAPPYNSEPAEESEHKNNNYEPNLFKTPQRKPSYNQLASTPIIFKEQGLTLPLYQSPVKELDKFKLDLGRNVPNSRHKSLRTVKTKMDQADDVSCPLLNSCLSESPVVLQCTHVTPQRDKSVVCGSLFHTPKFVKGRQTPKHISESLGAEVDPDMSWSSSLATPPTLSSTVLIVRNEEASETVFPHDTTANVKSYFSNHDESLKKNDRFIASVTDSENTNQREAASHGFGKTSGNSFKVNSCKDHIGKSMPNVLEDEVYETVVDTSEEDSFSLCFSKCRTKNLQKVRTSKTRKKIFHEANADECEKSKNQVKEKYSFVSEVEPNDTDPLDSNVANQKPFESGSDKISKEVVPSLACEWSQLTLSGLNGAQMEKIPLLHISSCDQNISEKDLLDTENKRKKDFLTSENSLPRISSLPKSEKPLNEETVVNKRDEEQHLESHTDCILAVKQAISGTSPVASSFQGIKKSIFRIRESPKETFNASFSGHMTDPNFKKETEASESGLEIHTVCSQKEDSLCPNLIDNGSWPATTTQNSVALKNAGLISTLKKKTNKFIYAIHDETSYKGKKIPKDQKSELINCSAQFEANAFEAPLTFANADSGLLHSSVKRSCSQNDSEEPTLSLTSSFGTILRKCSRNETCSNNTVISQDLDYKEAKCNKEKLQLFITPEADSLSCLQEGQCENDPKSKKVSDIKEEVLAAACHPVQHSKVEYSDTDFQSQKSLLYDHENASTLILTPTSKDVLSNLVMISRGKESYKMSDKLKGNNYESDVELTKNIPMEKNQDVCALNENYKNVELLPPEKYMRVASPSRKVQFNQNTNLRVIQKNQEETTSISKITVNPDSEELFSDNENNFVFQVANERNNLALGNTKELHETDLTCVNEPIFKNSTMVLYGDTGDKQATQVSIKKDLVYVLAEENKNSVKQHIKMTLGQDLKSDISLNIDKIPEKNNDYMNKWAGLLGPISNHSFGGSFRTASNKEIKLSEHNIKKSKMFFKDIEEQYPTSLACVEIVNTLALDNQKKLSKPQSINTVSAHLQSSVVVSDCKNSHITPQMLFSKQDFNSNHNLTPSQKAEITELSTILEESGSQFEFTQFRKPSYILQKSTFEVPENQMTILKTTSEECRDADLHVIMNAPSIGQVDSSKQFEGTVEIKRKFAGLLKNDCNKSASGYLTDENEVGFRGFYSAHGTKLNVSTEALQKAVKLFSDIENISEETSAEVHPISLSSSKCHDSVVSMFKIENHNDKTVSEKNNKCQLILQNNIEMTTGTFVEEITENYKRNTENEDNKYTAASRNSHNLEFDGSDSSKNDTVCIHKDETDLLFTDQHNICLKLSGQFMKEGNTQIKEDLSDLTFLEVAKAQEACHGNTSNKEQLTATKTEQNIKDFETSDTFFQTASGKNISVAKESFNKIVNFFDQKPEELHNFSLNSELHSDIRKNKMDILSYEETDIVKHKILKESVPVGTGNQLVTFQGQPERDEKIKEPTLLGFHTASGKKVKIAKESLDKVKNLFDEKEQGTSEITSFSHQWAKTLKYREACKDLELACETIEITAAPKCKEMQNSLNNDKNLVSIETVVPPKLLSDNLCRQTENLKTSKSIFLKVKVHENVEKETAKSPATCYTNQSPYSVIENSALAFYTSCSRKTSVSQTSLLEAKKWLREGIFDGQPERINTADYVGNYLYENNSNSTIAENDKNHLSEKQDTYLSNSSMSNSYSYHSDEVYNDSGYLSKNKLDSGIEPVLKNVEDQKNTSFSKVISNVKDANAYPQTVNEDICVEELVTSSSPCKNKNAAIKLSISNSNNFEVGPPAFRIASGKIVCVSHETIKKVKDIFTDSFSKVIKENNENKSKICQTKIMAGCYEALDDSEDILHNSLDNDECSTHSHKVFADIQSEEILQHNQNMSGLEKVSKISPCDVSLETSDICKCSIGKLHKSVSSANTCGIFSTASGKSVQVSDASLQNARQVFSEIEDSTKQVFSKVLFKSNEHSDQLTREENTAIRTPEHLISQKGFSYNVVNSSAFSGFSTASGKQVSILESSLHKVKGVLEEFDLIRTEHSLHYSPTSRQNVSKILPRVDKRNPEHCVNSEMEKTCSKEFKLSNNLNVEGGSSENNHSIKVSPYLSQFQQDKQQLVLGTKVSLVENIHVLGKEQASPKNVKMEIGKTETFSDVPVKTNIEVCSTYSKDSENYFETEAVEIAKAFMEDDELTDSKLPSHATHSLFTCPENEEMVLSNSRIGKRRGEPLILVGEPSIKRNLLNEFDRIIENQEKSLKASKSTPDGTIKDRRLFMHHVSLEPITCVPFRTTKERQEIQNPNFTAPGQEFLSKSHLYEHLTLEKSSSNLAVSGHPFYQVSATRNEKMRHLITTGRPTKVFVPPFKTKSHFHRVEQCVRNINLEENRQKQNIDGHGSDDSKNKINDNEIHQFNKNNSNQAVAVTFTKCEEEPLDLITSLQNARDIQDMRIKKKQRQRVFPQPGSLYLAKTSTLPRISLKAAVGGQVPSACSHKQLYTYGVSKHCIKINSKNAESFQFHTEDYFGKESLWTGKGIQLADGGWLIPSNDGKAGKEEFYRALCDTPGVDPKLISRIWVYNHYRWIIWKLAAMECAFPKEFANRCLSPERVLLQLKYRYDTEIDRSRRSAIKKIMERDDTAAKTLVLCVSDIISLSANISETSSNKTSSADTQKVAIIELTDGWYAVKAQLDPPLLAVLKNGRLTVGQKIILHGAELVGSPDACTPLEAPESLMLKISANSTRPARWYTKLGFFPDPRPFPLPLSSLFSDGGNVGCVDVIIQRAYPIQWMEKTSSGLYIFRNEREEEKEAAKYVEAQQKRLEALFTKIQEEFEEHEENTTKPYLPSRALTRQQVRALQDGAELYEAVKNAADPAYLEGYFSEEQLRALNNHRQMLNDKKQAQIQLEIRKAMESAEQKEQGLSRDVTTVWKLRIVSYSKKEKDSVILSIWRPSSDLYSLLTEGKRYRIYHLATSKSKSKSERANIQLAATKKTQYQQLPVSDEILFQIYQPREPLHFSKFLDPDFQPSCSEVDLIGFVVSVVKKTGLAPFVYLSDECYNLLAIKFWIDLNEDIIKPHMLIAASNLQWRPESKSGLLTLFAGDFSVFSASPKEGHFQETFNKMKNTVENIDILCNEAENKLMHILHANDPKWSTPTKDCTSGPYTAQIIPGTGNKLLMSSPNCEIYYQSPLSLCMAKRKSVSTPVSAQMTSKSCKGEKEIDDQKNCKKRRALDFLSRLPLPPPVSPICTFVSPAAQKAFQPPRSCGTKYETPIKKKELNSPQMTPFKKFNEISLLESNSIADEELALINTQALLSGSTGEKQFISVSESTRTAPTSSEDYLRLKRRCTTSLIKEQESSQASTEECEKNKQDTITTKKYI

Columns and labels:
[1] = target: endogenous BRCA2 in HEK 293T cells (UniProt P51587); assay: title of the Figure 1 legend (yeast two-hybrid and co-immunoprecipitation)
[2] = target: Flag-tagged BRCA2 overexpressed in HEK 293T cells (UniProt P51587); assay: co-immunoprecipitation with anti-Flag M2 from HEK 293T lysates, immunoblot
[3] = target: endogenous BRCA2 in HEK 293T cells (UniProt P51587); assay: co-immunoprecipitation with anti-BRCA2 antibody from HEK 293T lysates, immunoblot

Measured: binding

B1: Cyclin-Dependent Kinase 5 Regulatory Subunit Associated Protein 3 (CDK5RAP3), endogenous protein in HEK 293T cell lysates (protein, human, UniProt Q96JB5 1-506, looked up)
chain: MEDHQHVPIDIQTSKLLDWLVDRRHCSLKWQSLVLTIREKINAAIQDMPESEEIAQLLSGSYIHYFHCLRILDLLKGTEASTKNIFGRYSSQRMKDWQEIIALYEKDNTYLVELSSLLVRNVNYEIPSLKKQIAKCQQLQQEYSRKEEECQAGAAEMREQFYHSCKQYGITGENVRGELLALVKDLPSQLAEIGAAAQQSLGEAIDVYQASVGFVCESPTEQVLPMLRFVQKRGNSTVYEWRTGTEPSVVERPHLEELPEQVAEDAIDWGDFGVEAVSEGTDSGISAEAAGIDWGIFPESDSKDPGGDGIDWGDDAVALQITVLEAGTQAPEGVARGPDALTLLEYTETRNQFLDELMELEIFLAQRAVELSEEADVLSVSQFQLAPAILQGQTKEKMVTMVSVLEDLIGKLTSLQLQHLFMILASPRYVDRVTEFLQQKLKQSQLLALKKELMVQKQQEALEEQAALEPKLDLLLEKTKELQKLIEADISKRYSGRPVNLMGTSL
binds: [1] | [2] | [3]
